The results in this text go back to PubChem BioAssay AID1532 (PCMD, 2009).

Some of the results follow.

For the experiment, the system named is RmlC (dTDP-4-dehydrorhamnose 3,5-epimerase) and RmlD (dTDP-4-dehydrorhamnose reductase), coupled enzyme assay. Kind of experiment: RmlC and RmlD coupled enzyme inhibitors, primary screen, biochemical, 384-well, compound mixtures, retest (AID 1532). The conditions noted are these: 384-well mixture HTS, measured here: mean retest inhibition, at 5.5 µM, stronger effect = higher value.
`O=C(NCC1(N2CCOCC2)CCCCC1)c1cc(=O)[nH]c2ccccc12`: the inhibition is -3.49%.
As for `O=C(OC1CN2CCC1CC2)C1c2ccccc2Oc2ccccc21` (configuration not stated), the figure is -10.4%.
